The values that follow come from the supplement of paper PMC4807443.

Structures are written as SMILES. Where a name gives a salt, the structure may show the parent alone. Some of the results follow. The numbers are fractions of the control, whatever unit the source prints. Most values lie at the level of the controls, where differences are scatter.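 A lentiviral reporter stably expressed in MIN6 mouse insulinoma beta cells uses Pdx1 and Ins1 promoters to drive separate nucleus-targeted fluorescent proteins; automated imaging with Hoechst nuclear stain counted cells. Possible hits were drugs shifting Ins1 promoter signal more than two median absolute deviations from DMSO controls, with Pdx1 activity roughly normal.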

In the test the test system is MIN6. Nature of the test: % Pdx1+ Ins1-low (RFP-only, immature) cells relative to DMSO control (fold of DMSO control); higher = more immature Pdx1+/Ins1-low cells. Particulars: 8.5 µM; 48 h; glucose 5 mM.
Consider `Cn1c(=O)c2c(ncn2CC(O)CO)n(C)c1=O` (configuration not stated) [Diprophylline], for which the “% Pdx1+ Ins1-low” value is 0.726.
`C=C(NC(=O)C(=C)NC(=O)c1csc(C2=N[C@@H]3c4csc(n4)[C@H]4NC(=O)c5csc(n5)[C@H]([C@](C)(O)[C@@H](C)O)NC(=O)[C@H]5CSC(=N5)/C(=C/C)NC(=O)[C@H]([C@@H](C)O)NC(=O)c5csc(n5)[C@]3(CC2)NC(=O)[C@H](C)NC(=O)C(=C)NC(=O)[C@H](C)NC(=O)[C@H]([C@@H](C)CC)N[C@@H]2C=Cc3c([C@H](C)O)cc(nc3[C@H]2O)C(=O)O[C@@H]4C)n1)C(N)=O` [Thiostrepton]: the “% Pdx1+ Ins1-low” value came out at 0.821.
Next, `CCC(C)(CN(C)C)OC(=O)c1ccccc1` (configuration not stated) [Amyleine hydrochloride]: 1.2; `CC(=C(CCO)SSCC1CCCO1)N(C=O)Cc1cnc(C)nc1N` (stereo in doubt) [Fursultiamine Hydrochloride]: 0.634; `CNC1(C)C2CCC(C2)C1(C)C` (configuration not stated) [Mecamylamine hydrochloride]: 0.916.
Regarding `CC1=C(C(=O)O)N2C(=O)[C@@H](NC(=O)[C@H](N)c3ccc(O)cc3)[C@H]2SC1` [Cefadroxil], the “% Pdx1+ Ins1-low” value is 1.32.
With `CC(C)(Oc1ccc(C2CC2(Cl)Cl)cc1)C(=O)O` (configuration not stated) [Ciprofibrate], the “% Pdx1+ Ins1-low” value turned out to be 1.09.
For `CCn1cc(C(=O)O)c(=O)c2cc(F)c(N3CCNCC3)cc21` [Norfloxacin], the “% Pdx1+ Ins1-low” value worked out at 0.868.
The figure for `CCOC(=O)C1=C(C)NC(C)=C(C(=O)OC)C1c1cccc([N+](=O)[O-])c1` (configuration not stated) [Nitrendipine] is 0.687; for `NS(=O)(=O)c1cc2c(cc1C(F)(F)F)NC(Cc1ccccc1)NS2(=O)=O` (configuration not stated) [Bendroflumethiazide] it is 0.318.
Next, `CC(CN1c2ccccc2Sc2ccccc21)N(C)C` (configuration not stated) [Promethazine hydrochloride]: 0.804; `O=C(c1ccc(OCCN2CCCCC2)cc1)c1c(-c2ccc(O)cc2)sc2cc(O)ccc12` [Raloxifene hydrochloride]: 0.957; `COc1cc(N)c(Cl)cc1C(=O)NC1CCN(Cc2ccccc2)CC1` [Clebopride maleate]: 1.09.
Next, `CCCCOc1ccc(OCCCN2CCOCC2)cc1` [Pramoxine hydrochloride]: 0.973.
As to `CC1CCc2cc(F)cc3c(=O)c(C(=O)O)cn1c23` (configuration not stated) [Flumequine], the “% Pdx1+ Ins1-low” value was found to be 1.
The figure for `O=C(NCC1CCCCN1)c1cc(OCC(F)(F)F)ccc1OCC(F)(F)F` (configuration not stated) [Flecainide acetate] is 1.26.
Next, `COc1c(O)cc2c(c1O)[C@@H]1O[C@H](CO)[C@@H](O)[C@H](O)[C@H]1OC2=O` [Bergenin monohydrate]: 0.666.
The figure for `Cc1c(OCC(F)(F)F)ccnc1C[S+]([O-])c1nc2ccccc2[nH]1` (configuration not stated) [Lansoprazole] is 0.633; for `CC(C)(C)NCC(O)c1ccc(O)c(CO)c1` (configuration not stated) [Salbutamol] it is 0.816; for `O=C(O)CNC(=O)C(CS)Cc1ccccc1` (configuration not stated) [Thiorphan] it is 0.805.
On to `CN(C)CCCC1(c2ccc(F)cc2)OCc2cc(C#N)ccc21` (configuration not stated) [Citalopram Hydrobromide], for which the “% Pdx1+ Ins1-low” value is 1.27.
As to `COC1=CC(=O)C[C@@H](C)[C@]12Oc1c(Cl)c(OC)cc(OC)c1C2=O` [Griseofulvin], the “% Pdx1+ Ins1-low” value is 0.917.
Next, `COc1cc(N)c(Cl)cc1C(=O)NC1CCN(CCCOc2ccc(F)cc2)CC1OC` (configuration not stated) [Cisapride]: 0.983; `CN(C)CCC(c1ccc(Cl)cc1)c1ccccn1` (configuration not stated) [Chlorpheniramine maleate]: 1.4.
In the case of `Cc1c(NC(C)C)c(=O)n(-c2ccccc2)n1C` [Isopyrin hydrochloride], the “% Pdx1+ Ins1-low” value turned out to be 1.23.
The figure for `NCCc1cc[nH]n1` [Betazole hydrochloride] is 0.957.
The figure for `CCCNC(C)C(=O)Nc1c(C)csc1C(=O)OC` (configuration not stated) [Articaine hydrochloride] is 0.857; for `Cc1cn([C@H]2C[C@H](N=[N+]=[N-])[C@@H](CO)O2)c(=O)[nH]c1=O` [Zidovudine, AZT] it is 0.668.
Next, `COc1ccc([C@@H]2Sc3ccccc3N(CCN(C)C)C(=O)[C@@H]2OC(C)=O)cc1` [Diltiazem hydrochloride]: 0.664; `CN(C)CCN(Cc1ccc(Cl)cc1)c1ccccn1` [Chloropyramine hydrochloride]: 0.785.
Turning to `COc1ccc2c(c1)C(=O)N(CCc1ccc(S(=O)(=O)NC(=O)NC3CCCCC3)cc1)C(=O)C2(C)C` [Gliquidone], the “% Pdx1+ Ins1-low” value turned out to be 0.847.
With `CC(C[N+](C)(C)C)OC(N)=O` (configuration not stated) [Bethanechol chloride], the “% Pdx1+ Ins1-low” value is 0.662.
With `CNCCC=C1c2ccccc2C=Cc2ccccc21` [Norcyclobenzaprine], the “% Pdx1+ Ins1-low” value was 1.05.
Turning to `NC(=O)c1ccc[n+]([C@@H]2O[C@H](COP(=O)([O-])OP(=O)(O)OC[C@H]3O[C@@H](n4cnc5c(N)ncnc54)[C@H](O)[C@@H]3O)[C@@H](O)[C@H]2O)c1` [Nadide], the “% Pdx1+ Ins1-low” value came out at 0.831.
The figure for `O=C(CCCN1CCC(O)(c2ccc(Cl)cc2)CC1)c1ccc(F)cc1` [Haloperidol] is 1.23; for `Cc1ccc(C)c(OCCCC(C)(C)C(=O)O)c1` [Gemfibrozil] it is 0.773.
Take `COCCOC(=O)C1=C(C)NC(C)=C(C(=O)OC(C)C)C1c1cccc([N+](=O)[O-])c1` (configuration not stated) [Nimodipine]: the “% Pdx1+ Ins1-low” value was determined as 1.26.
With `CN1C(C(=O)Nc2ccccn2)=C(O)c2ccccc2S1(=O)=O` [Piroxicam], the “% Pdx1+ Ins1-low” value stood at 1.05.
The figure for `NC(=O)OCC(O)COc1ccc(Cl)cc1` (configuration not stated) [Chlorphensin carbamate] is 0.95; for `CC1(C)S[C@@H]2[C@H](NC(=O)[C@H](N)c3ccccc3)C(=O)N2[C@H]1C(=O)OC1OC(=O)c2ccccc21` (some centres not stated) [Talampicillin hydrochloride] it is 0.924.
As for `O=c1[nH]c(=O)n([C@H]2C[C@H](O)[C@@H](CO)O2)cc1C(F)(F)F` [Trifluridine], the “% Pdx1+ Ins1-low” value amounted to 0.707.
On to `Cc1nnc(SCC2=C(C(=O)O)N3C(=O)[C@@H](NC(=O)Cn4cnnn4)[C@H]3SC2)s1` [Cefazolin sodium salt], for which the “% Pdx1+ Ins1-low” value worked out at 0.866.
For the molecule `COc1ccc2c3c1O[C@H]1C[C@@H](O)C=C[C@@]31CCN(C)C2` [Galanthamine hydrobromide], the “% Pdx1+ Ins1-low” value came to 1.42.
Regarding `CC(C)NC(=N)NC(=N)Nc1ccc(Cl)cc1` [Proguanil hydrochloride], the “% Pdx1+ Ins1-low” value was found to be 1.01.
Take `CC(=O)CC(c1ccc([N+](=O)[O-])cc1)c1c(O)c2ccccc2oc1=O` (configuration not stated) [Acenocoumarol]: the “% Pdx1+ Ins1-low” value turned out to be 1.09.
Turning to `CCCCCCCCNC(C)C(O)c1ccc(SC(C)C)cc1` (configuration not stated) [Suloctidil], the “% Pdx1+ Ins1-low” value was found to be 0.576.
As for `Cc1cccc(Nc2ccncc2S(=O)(=O)NC(=O)NC(C)C)c1` [Torsemide], the “% Pdx1+ Ins1-low” value stood at 0.657.
Next, `NCCC(=O)NCCc1c[nH]cn1` [Carcinine]: 0.771; `COc1cc2ccc(=O)oc2cc1O` [Scopoletin]: 0.535.
In the case of `CC[N+](CC)(CC(=O)Nc1c(C)cccc1C)Cc1ccccc1` [Denatonium benzoate], the “% Pdx1+ Ins1-low” value stood at 0.686.
The figure for `C=N[C@@H](C(=O)N[C@@H]1C(=O)N2[C@@H]1SC(C)(C)[C@@H]2C(=O)O)c1ccccc1` [Metampicillin sodium salt] is 1.26.
Take `COc1cc(NS(=O)(=O)c2ccc(N)cc2)nc(OC)n1` [Sulfadimethoxine]: the “% Pdx1+ Ins1-low” value came to 1.51.
As to `CC1=C(C(=O)O)N2C(=O)[C@@H](NC(=O)[C@H](N)c3ccccc3)[C@H]2SC1` [Cephalexin monohydrate], the “% Pdx1+ Ins1-low” value worked out at 0.837.
Next, `CC(C)(C)NCC(O)COc1cccc2c1CC(O)C(O)C2` (configuration not stated) [Nadolol]: 1.52.
As to `COc1ccc2cc3[n+](cc2c1OC)CCc1cc2c(cc1-3)OCO2` [Berberine chloride], the “% Pdx1+ Ins1-low” value was found to be 1.46.
The figure for `COc1ccc2c(c1)c(CC(=O)OCC(=O)O)c(C)n2C(=O)c1ccc(Cl)cc1` [Acemetacin] is 0.946; for `O=C1C(O)=C(O)C(=O)C(O)=C1O` [Tetrahydroxy-1,4-quinone monohydrate] it is 0.753; for `NC(=O)c1cc[n+](CC2=C(C(=O)[O-])N3C(=O)[C@@H](NC(=O)Cc4cccs4)[C@H]3SC2)cc1` [Cefalonium] it is 0.765.
Next, `Cc1nccn1CC1CCc2c(c3ccccc3n2C)C1=O` (configuration not stated) [Ondansetron Hydrochloride]: 0.678; `CC(=O)O[C@]1(C(C)=O)CC[C@H]2[C@@H]3C=C(C)C4=CC(=O)CC[C@]4(C)[C@H]3CC[C@@]21C` [Megestrol acetate]: 0.485.
Next, `Cc1cccc(C)c1NC(=O)CN1CCN(CCCC(c2ccc(F)cc2)c2ccc(F)cc2)CC1` [Lidoflazine]: 1.45; `Nc1nc(=O)[nH]cc1F` [Flucytosine]: 0.78; `N=C(N=C(N)N)N1CCOCC1` [Moroxidine hydrochloride]: 0.686.
`C[C@@H]1O[C@@H](O[C@H]2[C@H](Oc3cc(O)c4c(c3)O[C@H](c3ccc(O)cc3)CC4=O)O[C@H](CO)[C@@H](O)[C@@H]2O)[C@H](O)[C@H](O)[C@H]1O` [Naringin hydrate]: the “% Pdx1+ Ins1-low” value turned out to be 0.545.
The figure for `O=C(Nc1ccccc1)OCC(CN1CCCCC1)OC(=O)Nc1ccccc1` (configuration not stated) [Diperodon hydrochloride] is 0.762.
For `CC(=O)Nc1ccc(OCC(O)CNC(C)C)cc1` (configuration not stated) [Practolol], the “% Pdx1+ Ins1-low” value came out at 1.05.
With `CCCC(=O)Nc1ccc(OCC(O)CNC(C)C)c(C(C)=O)c1` (configuration not stated) [Acebutolol hydrochloride], the “% Pdx1+ Ins1-low” value turned out to be 0.729.
Consider `N=C(N)N1CCc2ccccc2C1` [Debrisoquin sulfate], for which the “% Pdx1+ Ins1-low” value was 0.907.
The figure for `CC(=O)/N=c1/sc(S(N)(=O)=O)nn1C` [Methazolamide] is 0.689; for `CCCCOC(=O)c1ccc(O)cc1` [Butylparaben] it is 0.677; for `O=C(CCCCC(=O)Nc1c(I)cc(I)c(C(=O)O)c1I)Nc1c(I)cc(I)c(C(=O)O)c1I` [Iodipamide] it is 1.05.
For `O=C(O)Cc1cc(I)c(Oc2ccc(O)c(I)c2)c(I)c1` [Tiratricol, 3,3',5-triiodothyroacetic acid], the “% Pdx1+ Ins1-low” value stood at 1.25.
